Publication PMC2680623
No constants are given. Whether binding was seen depends on the method and setting. In cells and extracts the contact can be indirect. These calls come from enrichment with a bait or labelling near it, and not all partners need be listed.

Amino acid sequences for entries named in this document (tags omitted). A change or cut given only in a name is not applied to a line headed by its entry.
UniProt Q3URU2: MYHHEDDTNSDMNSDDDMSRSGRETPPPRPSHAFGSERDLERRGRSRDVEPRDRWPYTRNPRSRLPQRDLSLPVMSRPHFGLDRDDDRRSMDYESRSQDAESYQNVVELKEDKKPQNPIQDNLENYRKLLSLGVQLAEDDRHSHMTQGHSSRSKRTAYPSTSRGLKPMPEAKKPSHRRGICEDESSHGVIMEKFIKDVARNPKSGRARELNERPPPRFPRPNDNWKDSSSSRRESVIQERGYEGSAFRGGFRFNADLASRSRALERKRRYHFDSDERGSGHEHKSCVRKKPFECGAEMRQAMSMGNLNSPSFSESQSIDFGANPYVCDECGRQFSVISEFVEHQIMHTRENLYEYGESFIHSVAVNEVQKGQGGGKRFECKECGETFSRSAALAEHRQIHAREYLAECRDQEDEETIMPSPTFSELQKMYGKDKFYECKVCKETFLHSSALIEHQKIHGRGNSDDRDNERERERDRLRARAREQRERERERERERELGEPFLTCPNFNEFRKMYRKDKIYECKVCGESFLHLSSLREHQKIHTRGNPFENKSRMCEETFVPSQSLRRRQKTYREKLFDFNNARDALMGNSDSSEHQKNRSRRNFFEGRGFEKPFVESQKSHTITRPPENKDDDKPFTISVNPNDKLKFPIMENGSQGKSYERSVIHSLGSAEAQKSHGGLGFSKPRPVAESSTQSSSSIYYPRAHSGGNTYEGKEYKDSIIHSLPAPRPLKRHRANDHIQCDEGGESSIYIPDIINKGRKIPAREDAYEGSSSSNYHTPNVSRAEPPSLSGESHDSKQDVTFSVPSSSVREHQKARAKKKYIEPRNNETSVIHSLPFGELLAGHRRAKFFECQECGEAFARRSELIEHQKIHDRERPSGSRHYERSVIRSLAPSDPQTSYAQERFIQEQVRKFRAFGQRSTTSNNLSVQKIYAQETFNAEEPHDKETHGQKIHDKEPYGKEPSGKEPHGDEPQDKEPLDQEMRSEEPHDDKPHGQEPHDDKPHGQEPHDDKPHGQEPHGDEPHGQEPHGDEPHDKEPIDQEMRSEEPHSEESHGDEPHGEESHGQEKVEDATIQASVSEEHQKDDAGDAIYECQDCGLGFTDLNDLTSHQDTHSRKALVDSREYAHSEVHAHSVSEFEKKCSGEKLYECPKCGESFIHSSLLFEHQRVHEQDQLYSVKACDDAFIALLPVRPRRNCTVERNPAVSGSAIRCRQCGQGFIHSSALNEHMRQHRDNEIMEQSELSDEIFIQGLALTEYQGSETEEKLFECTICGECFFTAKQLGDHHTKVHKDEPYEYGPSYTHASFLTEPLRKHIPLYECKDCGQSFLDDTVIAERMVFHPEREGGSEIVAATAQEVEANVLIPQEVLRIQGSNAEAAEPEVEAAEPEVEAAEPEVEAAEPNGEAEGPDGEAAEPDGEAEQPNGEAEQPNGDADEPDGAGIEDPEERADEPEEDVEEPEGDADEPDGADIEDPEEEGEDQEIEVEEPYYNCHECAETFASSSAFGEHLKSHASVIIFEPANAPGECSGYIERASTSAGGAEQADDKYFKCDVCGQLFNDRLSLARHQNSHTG
UniProt P21796: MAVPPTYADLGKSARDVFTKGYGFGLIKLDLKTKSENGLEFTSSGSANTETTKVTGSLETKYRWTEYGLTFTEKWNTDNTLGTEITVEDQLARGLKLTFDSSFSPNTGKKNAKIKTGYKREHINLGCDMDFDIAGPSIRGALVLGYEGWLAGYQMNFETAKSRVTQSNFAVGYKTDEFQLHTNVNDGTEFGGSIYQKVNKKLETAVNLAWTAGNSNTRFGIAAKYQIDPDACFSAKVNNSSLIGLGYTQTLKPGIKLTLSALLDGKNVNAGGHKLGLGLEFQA
UniProt Q60932: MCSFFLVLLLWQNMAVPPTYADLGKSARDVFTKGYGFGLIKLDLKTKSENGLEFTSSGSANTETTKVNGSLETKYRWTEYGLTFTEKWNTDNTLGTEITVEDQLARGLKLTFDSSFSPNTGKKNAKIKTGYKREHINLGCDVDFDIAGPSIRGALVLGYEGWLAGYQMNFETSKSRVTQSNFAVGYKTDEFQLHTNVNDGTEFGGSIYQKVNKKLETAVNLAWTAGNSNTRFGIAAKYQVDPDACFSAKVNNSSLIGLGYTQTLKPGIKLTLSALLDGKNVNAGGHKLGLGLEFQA

Experiments:
[1] = biological target: Murine PW1, forced expression in HEK293 cells (mass spectrometry screen) (mouse) (UniProt Q3URU2); test: affinity purification with mass spectrometry; PW1 immunoprecipitated from C2C12 cells (endogenous) or HEK293 cells (forced expression of murine PW1); two-dimensional electrophoresis, spots picked and analysed by LC-MS/MS; F3 cells, which do not express PW1, as negative control
[2] = biological target: PW1 (endogenous, C2C12 myogenic cells) (mouse (endogenous in C2C12)) (UniProt Q3URU2); test: as above

binding [1] | binding [2] | Substance
binds |  | VDAC-1 (endogenous, HEK293 cells) (from UniProt P21796 1-283)
 | binds | VDAC-1 (endogenous, C2C12 cells) (from UniProt Q60932)
